Measured values reported in paper PMC6259748, “Selection of Peptides Targeting Helix 31 of Bacterial 16S Ribosomal RNA by Screening M13 Phage-Display Libraries” (Molecules, 2011).

How the values were obtained:
unmodified h31 = experiment: phage-display selection against unmodified h31; type: binding, E. coli; conditions: two hundred phage isolates sequenced after fourth round; unmodified h31 target
[1] = tested on: modified h31 (unmodified h31 in counter selection); experiment: phage-display selection against modified h31 with unmodified h31 counter selection in round 3; type: binding, E. coli; conditions: one hundred phage isolates sequenced after third round; unmodified h31 in counter selection in round 3

| Substance | Frequency (unmodified h31) | Frequency [1] |
| --- | --- | --- |
| HPPHFPN [heptapeptide selected against unmodified h31] | 1 | – |
| HHPPFPP [heptapeptide selected against unmodified h31] | 2 | – |
| KPVKVPR [heptapeptide selected against unmodified h31] | 2 | – |
| HHHPPLA [major heptapeptide selected against unmodified h31] | 5 | – |
| CVRPFAL [heptapeptide from selection against modified h31 with unmodified h31 counter selection] | – | 5 |
| HNHLGVH [heptapeptide selected against unmodified h31] | 2 | – |
| KPGYSSA [heptapeptide selected against unmodified h31] | 2 | – |
| TLWPLSP [heptapeptide from counter selection] | – | 2 |
| KPPHHPR [heptapeptide selected against unmodified h31] | 3 | – |
| KPFHNST [major heptapeptide selected against unmodified h31] | 2 and 3 | – |
| TVRPFTL [heptapeptide from counter selection] | – | 2 |
| HPTGLFR [heptapeptide selected against unmodified h31] | 2 | – |
| CVRAPTL [heptapeptide from counter selection] | – | 2 |
| HPPSWGD [heptapeptide selected against unmodified h31] | 2 | – |
| KPPHPVY [heptapeptide selected against unmodified h31] | 1 | – |
| KPPQVPL [heptapeptide selected against unmodified h31] | 2 | – |
| TLWDLIP [heptapeptide selected against modified h31, with and without counter selection] | – | 2 |
| KPHAPHR [heptapeptide selected against unmodified h31] | 1 | – |

Several values for one entry are separate records, joined by “and”; a condition that tells them apart may be missing. Equal entries are not always repeated.
